Reference: patent US10617694B2 (priority 2016, dated 2020)

These molecules were tested on patients with obstructive sleep apnea (assay: Table 1 summary of efficacy and side effects in sleep apnea, compared with acetazolamide, topiramate and zonisamide data). Conditions: efficacy rating divided by side effect total rating.
Assay type: in vivo, human
Excerpt: The results from Example 1 and 2 are summarized in table 1, below, where the results are further compared with data reflecting the effect of acetazolamide, topiramate and zonisamide in sleep apnea.
In the case of `NS(=O)(=O)Cc1noc2ccccc12` [Zonisamide], the Efficacy/side effect ratio is reported as 1/3.3 = 0.30.
In the case of `CC1(C)O[C@@H]2[C@@H](CO[C@@]3(COS(N)(=O)=O)OC(C)(C)O[C@@H]23)O1` [Topiramate], the Efficacy/side effect ratio is reported as 1/3.7 = 0.27.
In the case of `CC(=O)Nc1nnc(S(N)(=O)=O)s1` [Acetazolamide], the Efficacy/side effect ratio is reported as 1/2.7 = 0.38 and 2/2.7 = 0.74.

Values joined by “and” are separate entries in the source; they are usually repeats but may differ in a detail not shown here. Identical values can stand only once.
